Laboratory results published in PMC10825186, “A universal metabolite repair enzyme removes a strong inhibitor of the TCA cycle” (Nature Communications, 2024).

B1: At FAHD1 (Arabidopsis thaliana) (protein)
chain: MATSMIQRMFKQGTKIVCVGRNYAAHAKELGNAVPKEPVIFLKPTSSYLENGGTIEIPHPLDSLHHEVELALVIGQKARDVPESIAMDYIGGYAVALDMTARELQASAKASGLPWTVAKGQDTFTPISSVLPKAMVRDPDNLELWLKVDGETRQKGLTKDMIFKVPYLISYISSIMTLYEGDVILTGTPEGVGPVKIGQKITAGITGLSEVQFDVERRVKPLS
B2: At FAHD2 (Arabidopsis thaliana) (protein)
chain: MATSMIQRLFKQGTKIVGVGLNYASHAKELGNALPKDPIVFLKPTSSYLENGGTIEIPHPLDSLHHEVELAVVIGQKARDVPERLAMNYIGGYALALDMTARELQVSAMASGLPCTLAKGQDTFTPISSVLPKAMVLDPNNLELWLKVDDETRQKGWTKDMIFKVPYLISYISSVMTLFKGDVILTGTPEGIGPVKIGQKITAGITGLSEVQFDVGRRLKPLLR

Substrate: O=C(O)C=C(O)C(=O)O
Experiment: purified protein
Settings: pH 7.5, 22 °C, 10 mM potassium phosphate, 0.3 mM NADH, malate dehydrogenase, OAA added in dry acetone

| Protein | Km [µM] | Vmax [µmol/min/mg] | kcat [s⁻¹] | kcat/Km [M⁻¹ s⁻¹] |
| --- | --- | --- | --- | --- |
| B1 | 48.8 ± 1.8 | 8.4 | 3.7 | 74800 |
| B2 | 66.0 ± 4.9 | 1.7 | 0.7 | 11000 |
